The text below walks through data of PMC11869656.

These are yes or no findings as the source states them, for the method shown. In cells and extracts the contact can be indirect. Binding calls can cover weak binding; strength is not graded here. Sequences can lack the tags named with a protein.

In assay [1] the target is T1, myc-tagged DCP1A (344–580) (pig) (UniProt I3LHS8).
T1 sequence: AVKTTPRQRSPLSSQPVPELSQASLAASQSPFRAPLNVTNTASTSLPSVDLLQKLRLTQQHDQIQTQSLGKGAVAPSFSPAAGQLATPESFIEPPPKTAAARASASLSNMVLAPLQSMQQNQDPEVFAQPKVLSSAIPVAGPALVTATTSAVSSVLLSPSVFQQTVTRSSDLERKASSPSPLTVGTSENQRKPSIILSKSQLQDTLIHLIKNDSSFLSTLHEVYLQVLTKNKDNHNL
Briefly: co-IP; BHK-21 cells cotransfected with myc-tagged DCP1A (or its truncations) and GFP-tagged SVV proteins or HA-tagged autophagy receptors; lysed at 24 hpt; anti-myc magnetic beads overnight; western blotting with anti-myc, anti-HA, anti-GFP. In general terms: A western blot detects proteins with antibodies after separation by electrophoresis.

Assay [2] addresses T2, myc-tagged pig mRNA decapping enzyme 1A (DCP1A), full length (pig) (UniProt I3LHS8).
T2 sequence: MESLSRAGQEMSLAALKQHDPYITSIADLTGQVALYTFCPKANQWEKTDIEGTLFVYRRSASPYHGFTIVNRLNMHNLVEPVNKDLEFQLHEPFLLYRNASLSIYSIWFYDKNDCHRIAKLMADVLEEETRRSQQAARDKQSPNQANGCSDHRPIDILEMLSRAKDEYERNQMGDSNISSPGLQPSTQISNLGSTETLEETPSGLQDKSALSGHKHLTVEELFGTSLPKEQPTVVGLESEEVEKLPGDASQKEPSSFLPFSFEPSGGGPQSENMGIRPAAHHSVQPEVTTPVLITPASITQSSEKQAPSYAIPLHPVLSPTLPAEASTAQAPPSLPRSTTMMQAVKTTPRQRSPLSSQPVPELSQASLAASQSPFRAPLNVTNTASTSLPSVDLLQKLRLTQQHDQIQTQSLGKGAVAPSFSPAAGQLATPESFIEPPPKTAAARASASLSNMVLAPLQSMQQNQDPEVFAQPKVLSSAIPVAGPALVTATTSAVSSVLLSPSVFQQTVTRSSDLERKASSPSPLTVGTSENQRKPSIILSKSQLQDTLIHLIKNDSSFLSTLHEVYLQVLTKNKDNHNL
The assay is described as above.

As to “GFP-tagged SVV 3D RNA-dependent RNA polymerase (Seneca Valley virus) (enzyme)”, the binding result in assay [1] and in assay [2] was “binds” throughout.
